Cleaved PARP in drug-treated melanoma cells

Data from the primary screen of doi:10.1371/journal.pone.0140310, rounded.

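Human melanoma cell lines in 1,536-well plates were treated with a pair of drugs for 72 h, then fixed, stained and imaged. Each value is the cleaved-PARP-positive fraction of nuclei relative to DMSO-treated wells, in %, so that 100 equals the control and higher values mean more apoptosis. Concentrations were fixed for each drug; these are the higher of two levels. No replicate spread is given; individual values may be noisy. The marker varies much from line to line, for technical or biological reasons.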 Only some of the drugs and lines screened are listed, without regard to their results.

Every entry is a combination with SNS-314 at 0.004 µM: O=C(Nc1cccc(Cl)c1)Nc1ncc(CCNc2ncnc3ccsc23)s1

N#CC[C@H](C1CCCC1)n1cc(-c2ncnc3[nH]ccc23)cn1 at 5 µM gave COLO 800: 228; A101D: 134; G-361: 400; LOX IMVI: 163; LB2518-MEL: 198; SK-MEL-2: 129; UACC-62: 66.0; WM1745: 110.
Cn1cc(/C=C2\C(=O)Nc3cccnc32)c2ccccc21 at 2 µM gave COLO 800: 47.7; A101D: 38.3; G-361: 25.7; LOX IMVI: 82.7; LB2518-MEL: 44.6; SK-MEL-2: 89.0; UACC-62: 114; WM1745: 129.
Oc1cc(-c2nc(-c3ccccc3)[nH]c2-c2ccncc2)ccc1Cl at 1 µM gave COLO 800: 77.8; A101D: 42.1; G-361: 210; LOX IMVI: 49.8; LB2518-MEL: 44.9; SK-MEL-2: 490; UACC-62: 237; WM1745: 185.
C[C@@H]1CCN(C(=O)CC#N)C[C@@H]1N(C)c1ncnc2[nH]ccc12 at 5 µM gave COLO 800: 260; A101D: 123; G-361: 234; LOX IMVI: 167; LB2518-MEL: 72.9; SK-MEL-2: 377; UACC-62: 149; WM1745: 97.0.
Cc1cc([N+](=O)[O-])ccc1NS(=O)(=O)c1cc(Cl)ccc1Cl at 5 µM gave COLO 800: 289; A101D: 28.2; G-361: 592; LOX IMVI: 105; LB2518-MEL: 83.3; SK-MEL-2: 159; UACC-62: 364; WM1745: 129.
NC1(c2ccc(-c3nc4ccn5c(=O)[nH]nc5c4cc3-c3ccccc3)cc2)CCC1 at 2 µM gave COLO 800: 71.1; A101D: 263; G-361: 56.1; LOX IMVI: 322; LB2518-MEL: 66.4; SK-MEL-2: 108; UACC-62: 175; WM1745: 90.1.
Oc1nc(-c2ccc(C(F)(F)F)cc2)nc2c1CSCC2 at 10 µM gave COLO 800: 187; A101D: 37.1; G-361: 45.0; LOX IMVI: 94.8; LB2518-MEL: 124; SK-MEL-2: 106; UACC-62: 61.6; WM1745: 165.
CC[C@]1(O)C[C@H]2CN(CCc3c([nH]c4ccccc34)[C@@](C(=O)OC)(c3cc4c(cc3OC)N(C=O)[C@H]3[C@@](O)(C(=O)OC)[C@H](OC(C)=O)[C@]5(CC)C=CCN6CC[C@]43[C@@H]65)C2)C1 at 0.0005 µM gave COLO 800: 374; A101D: 303; G-361: 205; LOX IMVI: 99.9; LB2518-MEL: 120; SK-MEL-2: 330; UACC-62: 161; WM1745: 113.
N.N.[Cl][Pt][Cl] at 8 µM gave COLO 800: 160; A101D: 107; G-361: 133; LOX IMVI: 170; LB2518-MEL: 54.7; SK-MEL-2: 131; UACC-62: 124; WM1745: 80.0.
Cn1c(=O)n(-c2ccc(C(C)(C)C#N)cc2)c2c3cc(-c4cnc5ccccc5c4)ccc3ncc21 at 0.02 µM gave COLO 800: 183; A101D: 895; G-361: 335; LOX IMVI: 65.5; LB2518-MEL: 188; SK-MEL-2: 168; UACC-62: 168; WM1745: 82.2.
O=C(O)C(=O)Nc1sc2c(c1C(=O)O)CCNC2 at 8.33 µM gave COLO 800: 160; A101D: 161; G-361: 68.6; LOX IMVI: 128; LB2518-MEL: 90.2; SK-MEL-2: 84.5; UACC-62: 52.4; WM1745: 109.
O=C(O)c1ccc2c(c1)nc(Nc1cccc(Cl)c1)c1ccncc12 at 2 µM gave COLO 800: 257; A101D: 193; G-361: 346; LOX IMVI: 65.6; LB2518-MEL: 161; SK-MEL-2: 252; UACC-62: 149; WM1745: 145.
COc1cc([C@@H]2c3cc4c(cc3[C@@H](O[C@@H]3O[C@@H]5CO[C@@H](C)O[C@H]5[C@H](O)[C@H]3O)[C@H]3COC(=O)[C@H]23)OCO4)cc(OC)c1O at 0.1 µM gave COLO 800: 19.7; A101D: 126; G-361: 134; LOX IMVI: 57.5; LB2518-MEL: 192; SK-MEL-2: 256; UACC-62: 103; WM1745: 93.0.
O=C(Nc1cc(C(F)(F)F)cc(C(F)(F)F)c1)c1cc(Cl)ccc1O at 0.08 µM gave COLO 800: 147; A101D: 103; G-361: 209; LOX IMVI: 64.2; LB2518-MEL: 41.8; SK-MEL-2: 81.0; UACC-62: 86.3; WM1745: 177.
COc1ccc(C2=N[C@@H](c3ccc(Cl)cc3)[C@@H](c3ccc(Cl)cc3)N2C(=O)N2CCNC(=O)C2)c(OC(C)C)c1 at 0.5 µM gave COLO 800: 77.1; A101D: 58.7; G-361: 240; LOX IMVI: 301; LB2518-MEL: 143; SK-MEL-2: 358; UACC-62: 149; WM1745: 87.5.
CC(=O)O[C@@]12CO[C@@H]1C[C@H](O)[C@@]1(C)C(=O)[C@H](O)C3=C(C)[C@@H](OC(=O)[C@H](O)[C@@H](NC(=O)OC(C)(C)C)c4ccccc4)C[C@@](O)([C@@H](OC(=O)c4ccccc4)[C@H]21)C3(C)C at 0.0005 µM gave COLO 800: 196; A101D: 78.8; G-361: 859; LOX IMVI: 197; LB2518-MEL: 356; SK-MEL-2: 538; UACC-62: 154; WM1745: 263.
O=C(Nc1ccccc1)c1cc([N+](=O)[O-])ccc1Cl at 10 µM gave COLO 800: 901; A101D: 192; G-361: 62.0; LOX IMVI: 67.1; LB2518-MEL: 158; SK-MEL-2: 563; UACC-62: 234; WM1745: 157.
CN(C)S(=O)(=O)c1ccc2c(c1)/C(=C/c1cc3c([nH]1)CCCC3)C(=O)N2 at 2 µM gave COLO 800: 149; A101D: 247; G-361: 124; LOX IMVI: 82.7; LB2518-MEL: 131; SK-MEL-2: 105; UACC-62: 53.9; WM1745: 125.
CO[C@H]1C[C@@H]2CC[C@@H](C)[C@@](O)(O2)C(=O)C(=O)N2CCCC[C@H]2C(=O)O[C@H]([C@H](C)C[C@@H]2CC[C@@H](OCCO)[C@H](OC)C2)CC(=O)[C@H](C)/C=C(\C)[C@@H](O)[C@@H](OC)C(=O)[C@H](C)C[C@H](C)/C=C/C=C/C=C/1C at 0.1 µM gave COLO 800: 68.4; A101D: 121; G-361: 168; LOX IMVI: 24.5; LB2518-MEL: 133; SK-MEL-2: 130; UACC-62: 179; WM1745: 97.2.
CC(C)C[C@H](NC(=O)[C@H](Cc1ccccc1)NC(=O)c1cnccn1)B(O)O at 0.005 µM gave COLO 800: 222; A101D: 771; G-361: 12300; LOX IMVI: 221; LB2518-MEL: 2990; SK-MEL-2: 362; UACC-62: 146; WM1745: 445.
O=C(CCCCCCC(=O)Nc1ccccc1)NO at 0.4 µM gave COLO 800: 216; A101D: 70.3; G-361: 277; LOX IMVI: 71.5; LB2518-MEL: 41.0; SK-MEL-2: 166; UACC-62: 171; WM1745: 128.
O=c1[nH]nc(Sc2ncc([N+](=O)[O-])s2)n1-c1ccc2c(c1)OCCO2 at 1 µM gave COLO 800: 186; A101D: 70.9; G-361: 83.2; LOX IMVI: 105; LB2518-MEL: 121; SK-MEL-2: 115; UACC-62: 58.0; WM1745: 115.
CCCCCCCCCCCCCCCCCCOP(=O)([O-])OC1CC[N+](C)(C)CC1 at 2 µM gave COLO 800: 144; A101D: 59.9; G-361: 246; LOX IMVI: 110; LB2518-MEL: 90.7; SK-MEL-2: 185; UACC-62: 89.5; WM1745: 157.
COc1cc2ncnc(Nc3ccc(Oc4ccccc4)cc3)c2cc1OC at 10 µM gave COLO 800: 125; A101D: 130; G-361: 183; LOX IMVI: 137; LB2518-MEL: 149; SK-MEL-2: 131; UACC-62: 160; WM1745: 127.
Cc1nc(Nc2ncc(C(=O)Nc3c(C)cccc3Cl)s2)cc(N2CCN(CCO)CC2)n1 at 0.02 µM gave COLO 800: 213; A101D: 181; G-361: 221; LOX IMVI: 409; LB2518-MEL: 83.8; SK-MEL-2: 152; UACC-62: 85.3; WM1745: 346.
CN(c1ncccc1CNc1nc(Nc2ccc3c(c2)CC(=O)N3)ncc1C(F)(F)F)S(C)(=O)=O at 0.4 µM gave COLO 800: 290; A101D: 206; G-361: 206; LOX IMVI: 195; LB2518-MEL: 236; SK-MEL-2: 99.7; UACC-62: 170; WM1745: 184.
OCCn1cc(-c2cnc3nnn(Cc4ccc5ncccc5c4)c3n2)cn1 at 5 µM gave COLO 800: 107; A101D: 97.8; G-361: 147; LOX IMVI: 67.4; LB2518-MEL: 64.2; SK-MEL-2: 24.7; UACC-62: 131; WM1745: 87.5.
Cn1c(Nc2ccc(C(F)(F)F)cc2)nc2cc(Oc3ccnc(-c4ncc(C(F)(F)F)[nH]4)c3)ccc21 at 0.4 µM gave COLO 800: 176; A101D: 248; G-361: 645; LOX IMVI: 153; LB2518-MEL: 265; SK-MEL-2: 465; UACC-62: 235; WM1745: 156.
C[C@@H](N)c1ccc(C(=O)Nc2ccnc3[nH]ccc23)cc1 at 2 µM gave COLO 800: 481; A101D: 334; G-361: 232; LOX IMVI: 282; LB2518-MEL: 146; SK-MEL-2: 287; UACC-62: 226; WM1745: 154.
CC1(C)NC(=O)N(c2ccc([N+](=O)[O-])c(C(F)(F)F)c2)C1=O at 5 µM gave COLO 800: 242; A101D: 112; G-361: 219; LOX IMVI: 212; LB2518-MEL: 35.6; SK-MEL-2: 117; UACC-62: 135; WM1745: 71.3.
Cc1cc(N2CCOCC2)cc2[nH]c(-c3c(NC[C@@H](O)c4cccc(Cl)c4)cc[nH]c3=O)nc12 at 1 µM gave COLO 800: 661; A101D: 191; G-361: 172; LOX IMVI: 62.1; LB2518-MEL: 90.5; SK-MEL-2: 120; UACC-62: 64.1; WM1745: 168.
CC(C)CCN1c2nc(Nc3cc(F)c(O)c(F)c3)ncc2N(C)C(=O)C1C (stereo not given) at 1 µM gave COLO 800: 193; A101D: 148; G-361: 319; LOX IMVI: 136; LB2518-MEL: 156; SK-MEL-2: 150; UACC-62: 56.9; WM1745: 281.
COCC[n+]1c2c(n(Cc3cnccn3)c1C)C(=O)c1ccccc1C2=O at 0.002 µM gave COLO 800: 280; A101D: 226; G-361: 379; LOX IMVI: 141; LB2518-MEL: 308; SK-MEL-2: 468; UACC-62: 174; WM1745: 108.
Cc1cc(Nc2cc(N3CCN(C)CC3)nc(Sc3ccc(NC(=O)C4CC4)cc3)n2)n[nH]1 at 0.03 µM gave COLO 800: 504; A101D: 67.8; G-361: 307; LOX IMVI: 91.9; LB2518-MEL: 141; SK-MEL-2: 475; UACC-62: 153; WM1745: 159.

The first 4 entries again:

Partner	COLO 800	A101D	G-361	LOX IMVI	LB2518-MEL	SK-MEL-2	UACC-62	WM1745
N#CC[C@H](C1CCCC1)n1cc(-c2ncnc3[nH]ccc23)cn1 at 5 µM	228	134	400	163	198	129	66.0	110
Cn1cc(/C=C2\C(=O)Nc3cccnc32)c2ccccc21 at 2 µM	47.7	38.3	25.7	82.7	44.6	89.0	114	129
Oc1cc(-c2nc(-c3ccccc3)[nH]c2-c2ccncc2)ccc1Cl at 1 µM	77.8	42.1	210	49.8	44.9	490	237	185
C[C@@H]1CCN(C(=O)CC#N)C[C@@H]1N(C)c1ncnc2[nH]ccc12 at 5 µM	260	123	234	167	72.9	377	149	97.0